Molecules are shown by their SMILES.

The record followed here is patent US9314383B2, “Absorptive article” (UNICHARM CORPORATION, priority 2012, dated 2016).

The nature of this series: Absorbent body migration rate. As to conditions: after second dropping of horse EDTA blood; agent coated about 5 g/m^2.

For the compound `CCCCCCCCCCCC(=O)OCC(O)CO` (stereo not drawn) [90-L2 Lauric acid monoglyceride, lauric acid monoglyceride], the “Absorbent body migration rate” value amounted to 7 s.
Under `CC(C)CCCCCCCCCCCCCCCOC(=O)CC(O)C(=O)OCCCCCCCCCCCCCCCC(C)C` (stereo not drawn) [Diisostearyl malate] stands 8 s; under `CCCCCCCCOC(=O)CCCCC(=O)OCCCCCCCC` [Dioctyl adipate], 6 s.
Under `CCCCCCCCCCCCOC(=O)CCCCCCCCCCC` [ELECTOL WE20, Ester of dodecanoic acid (C12) and dodecyl alcohol (C12)] stands 5 s; under `CCCCCCCCCCCCCC(=O)OCCCCCCCCCCCC` [ELECTOL WE40, Ester of tetradecanoic acid (C14) and dodecyl alcohol (C12)], 4 s.
Under `CCCCC(CC)C(=O)OCC(C)(C)COC(=O)C(CC)CCCC` (stereo not drawn) [H-208BRS, Neopentyl glycol di(2-ethylhexanoate)] stands 5 s.
In the case of `CCCCC(CC)C(=O)OCC(COC(=O)C(CC)CCCC)OC(=O)C(CC)CCCC` (stereo not drawn) [PANACET 800B], the “Absorbent body migration rate” value was found to be 3 s.
Under `CCCCCCCC(=O)OCC(COC(=O)CCCCCCC)OC(=O)CCCCCCC` [PANACET 800] stands 3 s.
Under `CCCCOC(=O)CC(CC(=O)OCCCC)(OC(C)=O)C(=O)OCCCC` [Tributyl O-acetylcitrate] stands 8 s.
